Test: Plasma lipids (total plasma cholesterol and triglycerides)
Format: in vivo, mice
[1] = 129E^-/-, F, 15 wks, 30 mg/kg orally 35 days, chow diet
[2] = 129E^-/-, F, 15 wks, 50 mg/kg orally 35 days, chow diet
[3] = 129E^-/-, F, 15 wks, 100 mg/kg orally 35 days, chow diet
[4] = 129E^-/-, F, 20 wks, 30 mg/kg orally 35 days, chow diet
[5] = 129E^-/-, F, 24 wks, 100 mg/kg orally 35 days, chow diet
[6] = C57E^-/-, F, 22 wks, 100 mg/kg orally 35 days, chow diet
[7] = C57E^-/-, M, 16 wks, 100 mg/kg orally 35 days, chow diet
[8] = LDLr^-/-, M, 18 wks, 30 mg/kg orally 35 days, Western diet
[9] = MCP-1 ^-/- X ApoE^-/-, M, 15 wks, 30 mg/kg orally 35 days
[10] = MCP-1 ^-/- X ApoE^-/-, M, 15 wks, 100 mg/kg orally 35 days
[11] = MCP-1 ^-/- X ApoE^-/-, M, 30 wks, 100 mg/kg orally 35 days

## O=C(O)c1ccc(C(F)(F)F)cc1-c1ccc2c(c1)OC[C@H](Cc1ccccc1)[C@H]2O [(3S, 4R)-7-(2-carboxy-5-trifluoromethylphenyl)-4-hydroxy-3-benzyl-3,4-dihydro-2H-1-benzopyran]
[1]
  TG: 83 ± 40 mg/dL
  TPC: 584 ± 58 mg/dL
[2]
  TG: 59 ± 17 mg/dL
  TPC: 675 ± 181 mg/dL
[3]
  TG: 36 ± 13 mg/dL
  TPC: 858 ± 166 mg/dL
[4]
  TG: 138 ± 21 mg/dL
  TPC: 780 ± 51 mg/dL
[5]
  TG: 102 ± 9 mg/dL
  TPC: 579 ± 37 mg/dL
[6]
  TG: 116 ± 6 mg/dL
  TPC: 640 ± 41 mg/dL
[7]
  TG: 169 ± 57 mg/dL
  TPC: 801 ± 71 mg/dL
[8]
  TG: 532 ± 205 mg/dL
  TPC: 798 ± 300 mg/dL
[9]
  TG: 82 ± 12 mg/dL
  TPC: 345 ± 15 mg/dL
[10]
  TG: 79 ± 15 mg/dL
  TPC: 354 ± 20 mg/dL
MCP-1 ^-/- X ApoE^-/-, M, 30 wks, 30 mg/kg orally 35 days
  TPC: 565 ± 22 mg/dL
[11]
  TG: 47 ± 2 mg/dL
  TPC: 576 ± 21 mg/dL

From patent publication EP1270000A2, “Benzoic acid substituted benzopyrans for the treatment of atherosclerosis” (Pfizer Products Inc., priority 2001, dated 2003)
